Experimental data taken from publication PMC12286842.
Results are given in words; binding and its absence hold for the method and conditions named. For part of these data: Binding seen in cells or lysates may run through a third protein. Some results given as binding are weak or reduced against the parent protein; the word gives no strength.

The chains behind the UniProt entries cited, without tags or fusion partners. Where a name states a change or a piece, a line headed by the entry shows the natural chain unless it says otherwise. A line that says so, or that is headed by a name, gives the form on record, which may keep a tag or linker.
UniProt Q5T4S7: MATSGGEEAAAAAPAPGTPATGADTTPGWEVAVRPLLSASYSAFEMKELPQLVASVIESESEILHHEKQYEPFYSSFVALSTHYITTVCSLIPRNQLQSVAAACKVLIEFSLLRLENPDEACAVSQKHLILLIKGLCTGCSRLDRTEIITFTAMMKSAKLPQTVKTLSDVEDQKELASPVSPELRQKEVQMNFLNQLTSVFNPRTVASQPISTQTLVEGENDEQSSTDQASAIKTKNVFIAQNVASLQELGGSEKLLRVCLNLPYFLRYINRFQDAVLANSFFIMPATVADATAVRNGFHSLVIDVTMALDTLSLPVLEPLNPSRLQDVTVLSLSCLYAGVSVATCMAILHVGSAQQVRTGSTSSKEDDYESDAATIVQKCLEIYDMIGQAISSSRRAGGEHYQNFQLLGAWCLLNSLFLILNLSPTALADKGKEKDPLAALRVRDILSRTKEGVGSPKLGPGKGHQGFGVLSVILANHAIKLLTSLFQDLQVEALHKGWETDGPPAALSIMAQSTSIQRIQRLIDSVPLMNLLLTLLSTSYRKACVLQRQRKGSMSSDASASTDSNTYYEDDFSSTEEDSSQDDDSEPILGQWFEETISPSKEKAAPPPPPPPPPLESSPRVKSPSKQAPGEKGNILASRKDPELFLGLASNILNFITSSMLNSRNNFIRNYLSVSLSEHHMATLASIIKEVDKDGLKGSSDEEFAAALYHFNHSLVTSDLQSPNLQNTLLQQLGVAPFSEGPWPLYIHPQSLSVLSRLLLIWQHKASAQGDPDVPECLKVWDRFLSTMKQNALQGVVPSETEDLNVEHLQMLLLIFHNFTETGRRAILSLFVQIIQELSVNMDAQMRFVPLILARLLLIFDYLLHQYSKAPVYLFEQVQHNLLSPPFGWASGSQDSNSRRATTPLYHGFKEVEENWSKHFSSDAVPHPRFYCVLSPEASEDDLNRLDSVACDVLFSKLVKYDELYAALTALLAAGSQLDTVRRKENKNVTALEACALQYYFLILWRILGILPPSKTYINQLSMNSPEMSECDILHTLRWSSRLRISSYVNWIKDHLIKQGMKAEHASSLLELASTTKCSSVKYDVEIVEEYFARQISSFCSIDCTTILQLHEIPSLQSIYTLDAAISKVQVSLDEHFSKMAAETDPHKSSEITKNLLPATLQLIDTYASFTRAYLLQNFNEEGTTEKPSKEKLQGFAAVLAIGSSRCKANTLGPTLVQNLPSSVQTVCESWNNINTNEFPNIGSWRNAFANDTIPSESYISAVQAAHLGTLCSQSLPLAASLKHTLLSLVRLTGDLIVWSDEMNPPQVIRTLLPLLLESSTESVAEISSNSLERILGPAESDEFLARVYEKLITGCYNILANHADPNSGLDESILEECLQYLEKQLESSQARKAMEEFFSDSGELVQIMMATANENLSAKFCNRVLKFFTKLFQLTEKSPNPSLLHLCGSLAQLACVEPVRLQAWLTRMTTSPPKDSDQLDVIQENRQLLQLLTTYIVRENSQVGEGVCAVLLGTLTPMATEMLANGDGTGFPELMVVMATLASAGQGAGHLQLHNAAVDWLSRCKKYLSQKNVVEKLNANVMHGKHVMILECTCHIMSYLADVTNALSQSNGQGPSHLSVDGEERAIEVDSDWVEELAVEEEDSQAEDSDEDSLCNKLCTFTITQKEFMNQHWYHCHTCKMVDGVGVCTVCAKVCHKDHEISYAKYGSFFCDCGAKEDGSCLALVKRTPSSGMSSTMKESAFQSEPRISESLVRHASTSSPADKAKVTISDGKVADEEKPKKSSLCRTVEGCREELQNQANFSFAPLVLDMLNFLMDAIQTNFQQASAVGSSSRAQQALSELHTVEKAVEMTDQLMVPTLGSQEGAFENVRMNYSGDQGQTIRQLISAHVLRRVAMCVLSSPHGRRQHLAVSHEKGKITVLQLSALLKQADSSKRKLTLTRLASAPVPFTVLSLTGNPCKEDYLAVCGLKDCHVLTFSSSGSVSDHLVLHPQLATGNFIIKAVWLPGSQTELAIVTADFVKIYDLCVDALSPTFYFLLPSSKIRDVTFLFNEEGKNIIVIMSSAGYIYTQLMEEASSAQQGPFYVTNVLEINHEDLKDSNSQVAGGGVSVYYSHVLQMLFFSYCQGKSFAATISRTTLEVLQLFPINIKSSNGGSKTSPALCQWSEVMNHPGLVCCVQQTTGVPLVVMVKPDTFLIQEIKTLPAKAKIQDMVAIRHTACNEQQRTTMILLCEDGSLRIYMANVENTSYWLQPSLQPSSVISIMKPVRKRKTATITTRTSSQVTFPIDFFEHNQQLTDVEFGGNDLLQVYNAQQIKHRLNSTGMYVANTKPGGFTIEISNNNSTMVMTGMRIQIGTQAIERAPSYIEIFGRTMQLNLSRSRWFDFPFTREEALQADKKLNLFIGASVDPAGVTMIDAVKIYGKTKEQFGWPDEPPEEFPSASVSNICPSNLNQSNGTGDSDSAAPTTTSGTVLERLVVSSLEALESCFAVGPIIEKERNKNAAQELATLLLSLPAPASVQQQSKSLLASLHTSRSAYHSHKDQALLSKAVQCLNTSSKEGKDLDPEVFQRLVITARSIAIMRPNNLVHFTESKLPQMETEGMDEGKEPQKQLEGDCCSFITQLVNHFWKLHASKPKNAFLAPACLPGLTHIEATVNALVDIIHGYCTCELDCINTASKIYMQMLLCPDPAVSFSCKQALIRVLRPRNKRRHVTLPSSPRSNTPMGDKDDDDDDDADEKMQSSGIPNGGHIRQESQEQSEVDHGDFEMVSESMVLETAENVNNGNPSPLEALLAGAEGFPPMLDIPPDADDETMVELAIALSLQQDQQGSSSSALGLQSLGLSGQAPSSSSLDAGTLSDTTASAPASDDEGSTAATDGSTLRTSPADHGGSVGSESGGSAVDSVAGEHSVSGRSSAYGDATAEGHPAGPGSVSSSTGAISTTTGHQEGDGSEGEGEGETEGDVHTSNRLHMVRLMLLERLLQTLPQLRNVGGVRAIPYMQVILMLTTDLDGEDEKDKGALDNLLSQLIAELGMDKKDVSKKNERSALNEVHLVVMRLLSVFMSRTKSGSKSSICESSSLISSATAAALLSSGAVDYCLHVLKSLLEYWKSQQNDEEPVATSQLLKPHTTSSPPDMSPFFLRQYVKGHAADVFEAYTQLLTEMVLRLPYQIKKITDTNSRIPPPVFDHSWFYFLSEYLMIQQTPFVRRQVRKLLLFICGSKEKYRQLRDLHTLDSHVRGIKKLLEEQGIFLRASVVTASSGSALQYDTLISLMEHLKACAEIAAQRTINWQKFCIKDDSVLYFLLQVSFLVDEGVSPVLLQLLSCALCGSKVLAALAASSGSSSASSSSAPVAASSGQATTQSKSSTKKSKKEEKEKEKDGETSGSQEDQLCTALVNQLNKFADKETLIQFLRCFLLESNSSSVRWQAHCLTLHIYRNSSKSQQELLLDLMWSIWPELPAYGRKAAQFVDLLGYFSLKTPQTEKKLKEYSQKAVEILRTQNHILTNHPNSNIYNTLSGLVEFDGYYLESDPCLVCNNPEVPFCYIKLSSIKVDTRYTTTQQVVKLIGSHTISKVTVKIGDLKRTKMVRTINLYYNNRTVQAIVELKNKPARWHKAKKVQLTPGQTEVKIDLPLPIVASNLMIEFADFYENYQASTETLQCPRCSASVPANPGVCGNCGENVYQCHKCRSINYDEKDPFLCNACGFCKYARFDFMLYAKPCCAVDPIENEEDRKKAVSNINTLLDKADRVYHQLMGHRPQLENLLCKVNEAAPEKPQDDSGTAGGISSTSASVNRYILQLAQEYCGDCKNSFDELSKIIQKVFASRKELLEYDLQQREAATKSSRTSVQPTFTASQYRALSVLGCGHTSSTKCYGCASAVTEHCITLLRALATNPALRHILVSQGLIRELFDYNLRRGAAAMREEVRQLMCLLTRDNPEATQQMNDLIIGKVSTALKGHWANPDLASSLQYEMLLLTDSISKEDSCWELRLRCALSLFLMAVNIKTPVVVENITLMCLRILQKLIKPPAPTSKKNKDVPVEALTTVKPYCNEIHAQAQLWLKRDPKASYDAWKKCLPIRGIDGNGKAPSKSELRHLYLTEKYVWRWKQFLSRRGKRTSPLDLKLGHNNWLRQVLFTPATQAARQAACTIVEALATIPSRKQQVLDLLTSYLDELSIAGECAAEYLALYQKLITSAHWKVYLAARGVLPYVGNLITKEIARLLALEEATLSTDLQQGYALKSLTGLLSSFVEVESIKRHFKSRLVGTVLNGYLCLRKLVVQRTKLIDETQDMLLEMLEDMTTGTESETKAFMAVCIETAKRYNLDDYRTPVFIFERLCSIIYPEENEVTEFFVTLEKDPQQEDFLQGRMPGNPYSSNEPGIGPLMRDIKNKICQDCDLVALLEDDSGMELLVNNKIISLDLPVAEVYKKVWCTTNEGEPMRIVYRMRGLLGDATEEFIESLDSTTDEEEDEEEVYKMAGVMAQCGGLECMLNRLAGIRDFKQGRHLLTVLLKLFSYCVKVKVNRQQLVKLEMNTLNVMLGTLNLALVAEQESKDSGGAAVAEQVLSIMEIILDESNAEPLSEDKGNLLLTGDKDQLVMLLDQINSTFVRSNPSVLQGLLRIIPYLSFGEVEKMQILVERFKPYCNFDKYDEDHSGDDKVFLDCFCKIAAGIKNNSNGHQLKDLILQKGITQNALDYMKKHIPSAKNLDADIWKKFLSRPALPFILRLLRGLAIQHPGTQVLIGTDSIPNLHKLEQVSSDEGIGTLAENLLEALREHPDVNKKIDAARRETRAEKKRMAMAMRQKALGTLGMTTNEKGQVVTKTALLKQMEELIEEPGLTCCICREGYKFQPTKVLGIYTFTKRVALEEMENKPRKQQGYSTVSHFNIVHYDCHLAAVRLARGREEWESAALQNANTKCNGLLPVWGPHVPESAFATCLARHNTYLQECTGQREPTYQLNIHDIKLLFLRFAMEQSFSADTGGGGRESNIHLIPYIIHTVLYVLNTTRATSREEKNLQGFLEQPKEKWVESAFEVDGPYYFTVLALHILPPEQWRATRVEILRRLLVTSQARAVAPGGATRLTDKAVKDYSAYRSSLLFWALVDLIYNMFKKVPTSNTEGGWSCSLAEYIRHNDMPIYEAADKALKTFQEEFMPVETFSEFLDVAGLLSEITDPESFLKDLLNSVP
UniProt Q9P0J7: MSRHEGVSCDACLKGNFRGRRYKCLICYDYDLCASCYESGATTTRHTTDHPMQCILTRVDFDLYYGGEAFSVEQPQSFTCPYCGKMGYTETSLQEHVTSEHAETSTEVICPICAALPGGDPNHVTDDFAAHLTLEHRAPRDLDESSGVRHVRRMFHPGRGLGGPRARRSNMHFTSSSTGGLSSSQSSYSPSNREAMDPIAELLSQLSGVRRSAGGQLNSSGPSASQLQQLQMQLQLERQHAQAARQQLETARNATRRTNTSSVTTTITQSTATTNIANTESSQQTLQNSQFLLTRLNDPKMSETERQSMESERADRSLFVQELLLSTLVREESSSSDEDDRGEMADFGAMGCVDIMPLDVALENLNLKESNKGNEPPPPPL
KCMF1–Flag Q226/228/229/231/233E (Q9P0J7, form named): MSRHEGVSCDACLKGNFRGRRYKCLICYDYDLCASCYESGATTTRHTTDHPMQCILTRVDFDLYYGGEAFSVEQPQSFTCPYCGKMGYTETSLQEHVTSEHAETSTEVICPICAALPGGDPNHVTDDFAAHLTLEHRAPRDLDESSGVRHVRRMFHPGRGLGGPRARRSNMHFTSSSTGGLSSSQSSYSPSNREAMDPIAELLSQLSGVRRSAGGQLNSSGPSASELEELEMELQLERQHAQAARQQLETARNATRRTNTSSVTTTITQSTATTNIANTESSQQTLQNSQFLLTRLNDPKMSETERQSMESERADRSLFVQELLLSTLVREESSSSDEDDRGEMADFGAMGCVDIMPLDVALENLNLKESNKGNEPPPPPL

Columns and labels:
[1] = biological target: Flag–UBR4 (UBR4 tagged at its endogenous locus) (human (endogenous in HEK293T)) (UniProt Q5T4S7); experiment: cryo-EM structure; endogenous SIFI immunoprecipitated through tagged UBR4 from HEK293T and run on Superose 6 SEC; the complex formed in cells and was co-purified; single-particle cryo-EM, AF2 models fitted in low-resolution regions
[2] = biological target: Flag–UBR4(ΔUBL) (human (endogenous in HEK293T)) (UniProt Q5T4S7); experiment: co-IP; endogenous SIFI affinity-purified from WT or UBR4^ΔUBL cells, bound proteins detected by Western blot
[3] = biological target: KCMF1–Flag R316E/F319E/L323E/L325E (human) (UniProt Q9P0J7); experiment: co-IP; anti-Flag M2 affinity purification of KCMF1–Flag variants from cell lysate (40 mM HEPES 7.5, 150 mM NaCl, 0.1% NP-40), Western blot for endogenous UBR4, ABHD10 or ABHD10^HA
[4] = biological target: KCMF1–3×Flag (wild type) (human) (UniProt Q9P0J7); experiment: as above
[5] = biological target: KCMF1–Flag Q226/228/229/231/233E (human) (UniProt Q9P0J7); experiment: as above
[6] = biological target: Twin-Strep-II-tagged KCMF1 (human) (UniProt Q9P0J7); experiment: cryo-EM structure; SIFI purified through Twin-Strep-II-tagged KCMF1 transiently expressed in Expi293F (Strep-Tactin XT, SEC); N-terminal partial map

Measured: binding

KCMF1 (endogenous) (from UniProt Q9P0J7 1-381) (enzyme)
binds: [1] | [2]

UBR4 (endogenous, untagged) (from UniProt Q5T4S7-1 1-5183) (enzyme)
binds: [3] | [4] | [5] | [6]
